These are yes or no findings as the source states them, for the method shown. In cells and extracts the contact can be indirect. Binding calls can cover weak binding; strength is not graded here.

The target of the assay is FvFlbA1-NLuc (Fusarium verticillioides) (UniProt W7MNW1). The assay is described as follows: split reporter.
Consider CLuc-FvFlbA2 (from UniProt W7MCR6), for which the binding result is “binds”.

Regarding “FvPep12 (CLuc fusion) (from UniProt W7MPJ7)”, the binding result is reported as “binds weakly”.

On to “FvRab5 (CLuc fusion) (from UniProt W7LVC9)”, for which the binding entry was “binds”.

Take “FvRab7 (CLuc fusion) (from UniProt W7MEQ4)”: the binding result was “binds”.

Take “FvTlg2 (CLuc fusion) (from UniProt W7M6E7)”: the binding entry is recorded as “binds weakly”.

For the substance “FvVps36 (CLuc fusion) (from UniProt W7M1I4)”, the binding entry was “binds weakly”.

For the origin of these results see doi:10.1101/2020.09.22.309260.
